# Measured values taken from US20110218143A1, “COMPOSITIONS AND METHODS FOR TISSUE REPAIR” (UNIVERSITY OF FLORIDA RESEARCH FOUNDATION, priority 2007, published 2011).
# For at least one compound, name, drawing or mass did not settle the structure. Some entries share one result that the patent states for a list of compounds.
# How the values were obtained:
# Type in all cases: in vivo, C57BL6/J mice
# [1] = test system: stem cell populations in bone marrow (cd34+, cd45+, Sca-1+ cells); assay: FACS of cells expressing stem cell markers CD34, CD45, Sca-1 in bone marrow samples
# Protocol: (§1) Mice received either a placebo (PBS) or oridonin (3.0 mg/kg) by intraperitoneal injection.
# [2] = test system: stem cell populations in blood (cd34+, cd45+, Sca-1+ cells); assay: FACS of cells expressing stem cell markers CD34, CD45, Sca-1 in blood samples; conditions: oridonin 3.0 mg/kg i.p.; 48 hours post treatment
# Protocol: Mice received either a placebo or triptolide (400 μg/kg) by intraperitoneal injection.
# Celastrol analogs administered included dihydrocelastrol, dihydrocelastrol diacetate, and pristimerol (dihydropristimerin). Mice received either a placebo or a celastrol analog (3.0 mg/kg) by intraperitoneal injection.
# as §1
# [3] = test system: cytokine production in mouse blood; assay: Cytokine/chemokine levels in blood serum (Millipore 21-Plex, Luminex); conditions: i.p. celastrol 3.0 mg/kg or 17-AAG 10 mg/kg, sampled 0-72 h
# Protocol: Mice received either a placebo, celastrol (3.0 mg/kg), or 17-AAG (10 mg/kg) by intraperitoneal injection. Blood samples were taken from all groups of mice at 0, 1, 3, 6, 24, 48, and 72 hours after administration of the placebo, celastrol, or 17-AAG. The blood samples were analyzed for cytokine production, including the production of granulocyte-macrophage colony-stimulating factor (GM-CSF), interferon-gamma (IFN-γ), interleukin-10 (IL-10), interleukin-12 subunit beta (IL-12p40), interleukin-12 heterodimer (IL-12p70), interleukin-12 homodimer (IL-12p80), vascular endothelial growth factor (VEGF), tumor necrosis factor-alpha (TNF-α), keratinocyte derived chemokine (KC), RANTES (Regulated upon Activation, Normal T-cell Expressed, and Secreted; CCL5), monocyte chemotactic protein-1 (MCP 1), macrophage inflammatory protein (MIP1β; CCL4), interleukin-4 (IL-4), interleukin-3 (IL-3), interleukin-2 (IL-2), interleukin-1 beta (IL-1β), interleukin-1 alpha (IL-1α), interleukin-9 (IL-9), interleukin-13 (IL-13), interleukin-17 (IL-17), interleukin-6 (IL-6), and interleukin-5 (IL-5). Blood serum was analyzed using a commercially available kit (e.g., Mouse cytokine/chemokine panel: 21-Plex; Millipore). Blood serum (50 μl) was assayed in duplicate using a commercially available cytokine/chemokine detection kit from Millipore following the protocol given with the product information. The final measurement was performed using a commercially available detector (e.g., computer-operated Luminex 100 IS system) and the results were expressed as pg/ml blood serum sample. Levels of cytokines in blood were quantitated as a concentration of the total volume of the sample.
# [4] = 24 hours post treatment, i.p., celastrol 3.0 mg/kg, TE-140 peptide 250 μg/kg, or both
compound,measurement,setting,value
COC1=C2C[C@@H](C)C[C@H](OC)[C@H](O)[C@@H](C)/C=C(\C)[C@H](OC(N)=O)[C@@H](OC)/C=C\C=C(/C)C(=O)NC(=CC1=O)C2=O [geldanamycin],"increase in cd34+, cd45+ and sca-1+ cells compared with GM-CSF",[1]; doses not given,exceeded that observed using GM-CSF
H-Arg-Arg-Nal-Cys-Tyr-Arg-Lys-dLys-Pro-Tyr-Arg-Cit-Cys-Arg-OH [TE-140 peptide],"Sca-1+ cells, percent of the population of bone marrow cells",[1]; [4],≤ 0.2%
same,"cd34+ cells, percent of the population of bone marrow cells",[1]; [4],≤ 0.2%
C=C1C(=O)[C@]23[C@H](O)[C@H]1CC[C@H]2[C@@]12CO[C@]3(O)[C@@H](O)[C@@H]1C(C)(C)CC[C@@H]2O [oridonin],cd45+ cell population in bone marrow relative to untreated control mice,"[1]; oridonin 3.0 mg/kg i.p., 24 hours post treatment",did not change
same,Sca-1+ cell population in blood relative to untreated control mice (so in the source),[2],did not change
"C=CCNC1=C2C[C@@H](C)C[C@H](OC)[C@H](O)[C@@H](C)/C=C(\C)[C@H](OC(N)=O)[C@@H](OC)/C=C\C=C(/C)C(=O)NC(=CC1=O)C2=O [Formula 17-AAG, 17-allylamino-17-demethoxygeldanamycin]",time by which IL-1β returned to levels seen in the placebo control,[3],up to 48 hours
same,time by which IL-12p70 returned to levels seen in the placebo control,[3],up to 48 hours
same,time by which IL-12p80 returned to levels seen in the placebo control,[3],up to 48 hours
same,time by which MCP1 returned to levels seen in the placebo control,[3],up to 48 hours
CC(C)[C@]12O[C@H]1[C@@H]1O[C@]13[C@]1(O[C@H]1C[C@H]1C4=C(CC[C@@]13C)C(=O)OC4)[C@@H]2O [triptolide],"cd34+ cells, percent of the population of bone marrow cells","[1]; 48 hours post treatment, i.p., celastrol alone 3.0 mg/kg, triptolide alone 400 μg/kg, combination celastrol 2.5 mg/kg + triptolide 200 μg/kg",≤ 0.3%
same,"cd45+ cells, percent of the total bone marrow population","[1]; at either 48 hours or 24 hours post treatment, i.p., celastrol alone 3.0 mg/kg, triptolide alone 400 μg/kg",≤ 0.1%
